In PubChem BioAssay AID504834 (National Center for Advancing Translational Sciences (NCATS), 2011):
Among all 320,000 compounds or so, about 22,000 (6.9%) were called active. The shares of active, inactive and inconclusive entries below differ from those in the screen. Calls follow the shape of the dose curve; as a rule, active = well fitted inhibition curve with a large enough effect; inconclusive = small, poorly fitted or top-dose-only effect, or another doubt; inactive = no such curve, though single readings can be large or run the other way. Potencies beside an inconclusive call are fits to weak or partial responses and may not hold up. The source holds several records for some structures; these can differ, active in one and inactive in another.

Assay: Primary qHTS for delayed death inhibitors of the malarial parasite plastid, 96 hour incubation
Conditions: P. falciparum luciferase reporter growth; series mostly up to 28.7 µM; activity change, negative = inhibition: at the top concentration
Procedure, shortened: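 Cell-based qHTS: luciferase-tagged P. falciparum in erythrocytes (2% hematocrit, 0.05% parasitemia final) incubated with compounds for 96 hours, 37 C, 5% CO2; luciferase detection reagent then added and luminescence measured.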
% is scaled to controls: 0 for no effect and ±100 for the full control effect; potency is read from the fitted curve at half-maximal effect.

| SMILES | Potency | activity change, negative = inhibition |
| --- | --- | --- |
| COc1ccc(C)cc1NC(=O)C1CC(=O)OC12CCCCC2 (stereo not drawn) | inconclusive: 2.08 µM [inhibitor, full curve] |  |
| CC(=O)NCCCC(=O)NN1C(=S)N(Cc2ccccc2)C(=O)C1CC(=O)Nc1cccc(C)c1 (stereo not drawn) |  | inactive: 5.87% |
| CCOC(=O)c1cccc(NC(=O)CSc2nnc(-c3ccncc3)n2CCCOC)c1 | inconclusive: 4.65 µM [inhibitor, partial curve] |  |
| CC(=O)Nc1cccc(NC(=O)C2CCN(C(=O)c3ccco3)CC2)c1 | inconclusive: 5.86 µM [inhibitor, partial curve, poor fit] |  |
| CCCCCCn1c(N)c(C(=O)NCCN2CCOCC2)c2nc3ccccc3nc21 | inconclusive: 18.5 µM [inhibitor, single point] |  |
| Cc1cc(=O)oc2cc(OC(C)C(=O)NC3CCN(Cc4ccccc4)CC3)ccc12 (stereo not drawn) |  | inactive: -1.35% |
| O=C(COC(=O)C1CC2CCCC(C1)C2=O)NC(=O)c1ccccc1 (stereo not drawn) |  | inactive: 11.2% |
| O=C1C(Cl)=C(N2CCCCC2)C(=O)N1c1ccccc1 | inconclusive: 0.828 µM [inhibitor, full curve, poor fit] |  |
| COc1cccc(CC(NC(C)=O)C(=O)NC2CCN(S(=O)(=O)c3ccc(NC(C)=O)cc3)CC2)c1OC (stereo not drawn) |  | inactive: 3.38% |
| Cc1cc(=O)n2nc(N3CCCC(C(=O)NCc4cccc(Br)c4)C3)sc2n1 (stereo not drawn) |  | inactive: -21.4% |
| COc1ccc(CN2CCNC(=O)C2CC(=O)NC2CCCC2)cc1OC (stereo not drawn) | inconclusive: 13.1 µM [inhibitor, single point] |  |
| COc1ccc(-c2cc(C3CCN(Cc4cccc(C(F)(F)F)c4)CC3)[nH]n2)cc1 | inconclusive: 0.208 µM [inhibitor, full curve, poor fit] |  |
| Cc1ccc(C)c(CN2CCSCC2)c1 |  | inactive: 2.91% |
| COc1cccc(NC(=O)CCCn2nc(C)c3c(C)n(-c4ccccc4)nc3c2=O)c1 | inconclusive: 13.1 µM [inhibitor, partial curve] |  |
| Brc1cccc(-c2cnc3n2CCCCC3)c1 | inconclusive: 11.7 µM [inhibitor, single point] |  |
| Nn1c(COc2cccc(Br)c2)nnc1SCC(=O)N1CCc2ccccc2C1 | inconclusive: 13.1 µM [inhibitor, single point] |  |
| Cc1ccc(N(C(=O)CS(=O)CC(=O)Nc2ccc(F)cc2)C(C)C(=O)NC(C)(C)C)cc1 (stereo not drawn) |  | inactive: -8.79% |
| CCOC(=O)CC(=O)Nc1nnc(CC(C)C)s1 | inconclusive: 10.4 µM [inhibitor, partial curve] |  |
| COc1ccc(NC(=O)c2sc3nc(C)cc(C)c3c2N)cc1 | inconclusive: 18.5 µM [inhibitor, single point] |  |
| Cc1nnc(SCc2cc(=O)[nH]c(/N=C(\N)Nc3ccccc3)n2)s1 | inconclusive: 13.1 µM [inhibitor, single point] |  |
| CN1CCN(CCC(=O)Nc2ccc(C3CCCC3)cc2)CC1 |  | inactive: -18.8% |
| O=C(COc1ccccc1F)OCC(=O)N1CCc2ccccc21 |  | inactive: -6.62% |

Gathered by group, the compounds so far with bromine.

| SMILES | Potency | activity change, negative = inhibition |
| --- | --- | --- |
| Cc1cc(=O)n2nc(N3CCCC(C(=O)NCc4cccc(Br)c4)C3)sc2n1 (stereo not drawn) |  | inactive: -21.4% |
| Brc1cccc(-c2cnc3n2CCCCC3)c1 | inconclusive: 11.7 µM [inhibitor, single point] |  |
| Nn1c(COc2cccc(Br)c2)nnc1SCC(=O)N1CCc2ccccc2C1 | inconclusive: 13.1 µM [inhibitor, single point] |  |

The list continues:

| SMILES | Potency | activity change, negative = inhibition |
| --- | --- | --- |
| COc1ccc(C2CC(c3cccs3)=Nc3ccccc3S2)cc1 (stereo not drawn) | inconclusive: 10.4 µM [inhibitor, single point] |  |
| COCCCNC(=O)c1cn(-c2cccc(OC)c2)c(=O)c2ccccc12 |  | inactive: 31.3% |
| Cc1cc(C)cc(NC(=O)c2c(C)nc3ccccn23)c1 |  | inactive: 23.1% |
| COc1cccc(-n2c([S-])c(C(=O)Nc3ccc(S(=O)(=O)N4CCOCC4)cc3)[n+]3cc(C(N)=O)ccc23)c1 | inconclusive: 9.28 µM [inhibitor, partial curve, poor fit] |  |
| O=C(c1cccc(F)c1)N(Cc1nc2ccccc2c(=O)[nH]1)C1CCCC1 | inconclusive: 9.28 µM [inhibitor, partial curve, poor fit] |  |
| Cc1noc(C)c1CSc1nnc(-c2ccncc2)n1-c1cccc(Cl)c1C | inconclusive: 16.5 µM [inhibitor, partial curve, poor fit] |  |
| COc1ccccc1-n1c(SCC(=O)Nc2ccc(F)cc2)nc2c(c1=O)SCC2 | inconclusive: 10.4 µM [inhibitor, single point] |  |
| CN(C)CCCn1c(SCC(=O)Nc2sc3c(c2C#N)CCCC3)nnc1-c1ccncc1 | inconclusive: 18.5 µM [inhibitor, single point] |  |
| O=S(=O)(c1ccc(N=C2NN=C(c3cc(F)ccc3F)CS2)cc1)N1CCOCC1 | inconclusive: 1.85 µM [inhibitor, single point] |  |
| Nc1cc(-c2ccccc2)nn1Cc1ccc(Cl)cc1 |  | inactive: 206% |
| COc1ccc(CCC(=O)Nc2cc3c4c(c2)CCC(=O)N4CCC3)cc1 | inconclusive: 7.38 µM [inhibitor, partial curve, poor fit] |  |
| CCOC(=O)c1c(NC(=O)CSc2nnc(-c3cccnc3)n2Cc2ccco2)sc(C)c1C | inconclusive: 11.7 µM [inhibitor, single point] |  |
| CC(C)CSc1nnc2c3ccccc3n(C)c2n1 | active: 6.57 µM |  |
| CC12CCC(=O)N1C(C(=O)OCC(=O)Nc1ccc(S(N)(=O)=O)cc1)CS2 (stereo not drawn) |  | inactive: 54.1% |
| N#CC1=CN(Cc2ccccc2)C=C(/C=N/Nc2ccccc2)C1 | inconclusive: 2.33 µM [inhibitor, single point] |  |
| CCOC(=O)c1c(C)[nH]c(C)c1C(=O)CSc1nc2ccccc2c(=O)n1-c1ccc(C)cc1 | inconclusive: 11.7 µM [inhibitor, single point] |  |
| CC(C)Oc1ccc(C(=O)Nc2ncn[nH]2)cc1 | active: 10.4 µM |  |
| Cc1ccc(F)cc1NC(=O)CN1C(=O)NC(C)(c2ccc3c(c2)OCCO3)C1=O (stereo not drawn) | inconclusive: 5.86 µM [inhibitor, partial curve] |  |
| COc1cccc(/C=N/n2cncn2)c1OCC#N | inconclusive: 18.5 µM [inhibitor, single point] |  |
| C=CCc1cccc2cc(C(=O)Nc3ccc(CC(=O)O)cc3)c(=O)oc12 |  | inactive: 31.2% |
| O=C1COc2ccccc2N1Cc1ccc(Cl)cc1 |  | inactive: -14% |
| COc1ccc(CCNc2nc(-c3ccccn3)cs2)cc1OC | inconclusive: 1.65 µM [inhibitor, full curve, poor fit] |  |
| CCCc1c(OCCCCc2nn[nH]n2)ccc(C(C)=O)c1O | active: 10.7 µM |  |

| SMILES | Potency | activity change, negative = inhibition |
| --- | --- | --- |
| O=C(N/N=C\c1ccc(S(=O)(=O)O)o1)c1ccc2c(c1)OCO2 | inconclusive: 11.7 µM [inhibitor, single point] |  |
| CCOC(=O)CCNC(=O)Nc1ccc2nc(C)n(Cc3ccccc3Cl)c(=O)c2c1 | inconclusive: 9.28 µM [inhibitor, single point] |  |
| O=C(CCc1nnc(C2(c3ccc(Cl)cc3)CCC2)o1)N1CCCC(O)C1 (stereo not drawn) | inconclusive: 11.7 µM [inhibitor, single point] |  |
| COc1ccc(N2CCN(C(=O)c3ccc(CS(=O)(=O)c4ccccc4C)o3)CC2)cc1 | active: 10.4 µM |  |
| O=C(NCc1ccccn1)c1ccc(OC2CCN(Cc3ccc(F)cc3F)CC2)cc1 |  | inactive: -2.86% |
| OC1(c2ccc(Br)cc2)CN(c2ccccc2)C2=[N+]1CCS2 (stereo not drawn) | inconclusive: 18.5 µM [inhibitor, single point] |  |
| COc1cccc2[nH]c(C(=O)NCCCN3CCCC3=O)cc12 | inconclusive: 20.8 µM [inhibitor, partial curve, poor fit] |  |
| COCCNC(=O)CCCN1C(=O)c2ccccc2Sc2ncccc21 | inconclusive: 8.28 µM [inhibitor, partial curve] |  |
| Cn1c(Cl)cnc1C1CC(=O)c2cc(Cl)ccc2O1 (stereo not drawn) | inconclusive: 1.47 µM [inhibitor, partial curve, poor fit] |  |
| CCOc1ccc(C(=O)NC(=S)Nc2cccnc2)cc1[N+](=O)[O-] | inconclusive: 4.15 µM [inhibitor, partial curve, poor fit] |  |
| Cc1cccc2c(C(=O)N3CCN(c4ccccc4)CC3)cc(-c3ccncc3)nc12 | inconclusive: 9.28 µM [inhibitor, partial curve] |  |
| Cc1occc1C(=O)NCCCCc1ccccc1 | inconclusive: 13.1 µM [inhibitor, single point] |  |
| CC1CCC(NC(=O)c2nn(C)c3c2CSc2ccccc2-3)CC1 (stereo not drawn) | inconclusive: 13.1 µM [inhibitor, single point] |  |
| COc1ccc(Cn2c(C(F)(F)F)ccc(C(N)=O)c2=O)cc1 | inconclusive: 3.29 µM [inhibitor, full curve, poor fit] |  |
| COc1ccc(/C=C\c2onc(C)c2S(=O)(=O)N2CCC(C(=O)NCc3ccco3)CC2)cc1 | active: 13.1 µM |  |
| COc1ccc(C2/C(=C(/O)c3ccc(C)cc3)C(=O)C(=O)N2CCCN2CCOCC2)cc1 (stereo not drawn) | inconclusive: 0.37 µM [inhibitor, full curve, poor fit] |  |
| CCC1(C)Cc2ccccc2-c2nc(NCCO)n(-c3ccccc3)c(=O)c21 (stereo not drawn) | inconclusive: 18.5 µM [inhibitor, single point] |  |
| CNC(=O)/C(C#N)=C\c1ccc(CNS(=O)(=O)c2ccccc2)o1 | inconclusive: 11.7 µM [inhibitor, single point] |  |
| COc1cc2ccccc2cc1C(=O)NC(=S)Nc1nnn(C)n1 | inconclusive: 11.7 µM [inhibitor, single point] |  |
| COc1ccccc1C(=O)N/C(=C/c1ccc2c(c1)OCO2)C(=O)Nc1ccc(C(=O)O)cc1 |  | inactive: -14% |
| On1c(-c2ccc(Cl)cc2)nc2ccccc21 | inconclusive: 11.7 µM [inhibitor, partial curve, poor fit] |  |
| COc1ccc(S(=O)(=O)N2CCOCC2)cc1NC(=O)/C=C/c1ccccc1 | inconclusive: 16.5 µM [inhibitor, partial curve, poor fit] |  |
